Test results taken from PubChem BioAssay AID602296 (Broad Institute, 2012).
The whole screen tested about 2,000 compounds, of which about 190 (9.5%) were called active. Not shown: some 14% with an inconclusive outcome.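 Rule for the calls: active = fitted activation curve crossing 40% at a concentration no higher than the sample's top valid tested dose; inconclusive = flat fitted curve at 30% to 70% activation, or poor curve fit; inactive = signal decrease, flat curve within 30%, or the rest.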 Most of the strongest results are missing from this list.

Assay: HSF-1 reporter activators over prolonged exposure, confirmation, cell-based, mouse, luciferase, cherry-pick, dose (AID 602296);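 note: test compounds applied by themselves with no MG132 co-treatment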
Settings: NIH3T3-HGL HSF-1 response element luciferase, 48 h; at 26 µM (top of the series) unless noted

activation, inactive:
O=C1[C@@H]2Cc3c([nH]c4ccccc34)C(c3ccc([N+](=O)[O-])cc3)N2C(=O)CN1C1CC1 (stereo not given in full) -1.65%
O=C(CSc1ncnc2c1nnn2-c1ccc(F)cc1)NCC1CCCO1 (stereo not given) -4.24%
CCc1ccc(NC(=O)CSC2=C(C#N)C(c3ccc4c(c3)OCO4)CC(=O)N2)cc1 (stereo not given) 10.5%
CCOC(=O)Cc1cnc(NC(=O)NC(C(=O)OCC)(c2ccccc2)C(F)(F)F)s1 (stereo not given) -11%
O=C(NCCc1cccc(Cl)c1)c1cc2ccccc2oc1=O 5.86%
COc1cc(C)c(S(=O)(=O)N2CCN=C2c2ccccc2)cc1C -8.16%
Cc1cccc(C)c1N1CCN(c2ccc3nnc(C(F)(F)F)n3n2)CC1 -75.2%
COc1ccc(S(=O)(=O)N(C)CC(=O)N2CCC(C(N)=O)CC2)cc1Cl 15.7%
Cc1ccc(S(=O)(=O)c2c(N)n(CCC(C)C)c3nc4ccccc4nc23)cc1 -64.2%
COc1cccc(C(=O)COC(=O)C(C)N2C(=O)C3C4C=CC(C4)C3C2=O)c1 (stereo not given) 1.17%
O=C(O)c1ccccc1OC(C(=O)Nc1cc(Cl)cc(Cl)c1)c1ccccc1 (stereo not given) -26.7%
ClCC1CSC(=NC23CC4CC(CC(C4)C2)C3)O1 (stereo not given) -9.01%
O=C(Nc1ccccc1C(=O)N1CCCC1)c1ncoc1-c1cccc(Cl)c1 -19.5%
CC(=O)N(C)c1ccc(OCC(O)Cn2c3ccc(Cl)cc3c3cc(Cl)ccc32)cc1 (stereo not given) -96%
O=C(N/N=C/c1ccccn1)c1cc(-c2ccc(Br)cc2)nc2ccccc12 7.99%
Clc1ccc(-n2c(SC/C=C/c3ccccc3)nnc2-c2cccnc2)cc1 -11.5%
Cc1cc(NC(=O)Cn2cnc3sc(C)c(-c4ccccc4)c3c2=O)no1 1.53%
Cn1cc(CNC(=O)c2sc3cccc(Cl)c3c2Cl)cn1 0.869%
CC(c1ccccc1)N1CC(C(=O)N2CCN(c3ccc(F)cc3)CC2)CC1=O (stereo not given) 5.29%
Cc1ccc(S(=O)(=O)n2cnc3ccccc32)cc1[N+](=O)[O-] 5.61%
COc1ccc2c(c1)-c1nc(/N=C/c3c(O)ccc4ccccc34)sc1CC2 -0.997%
C=CCSc1nnc(N2C(=O)C(O)=C(C(=O)c3ccco3)C2c2ccc(F)cc2)s1 (stereo not given) 3.75%
Cn1c(=O)cc(SCC(=O)N2CCOCC2)c2ccc(Cl)cc21 -7.83%
CC1CN(C(=S)NC(=O)C2CCCCC2)CC(C)O1 (stereo not given) -8.85%
N=c1c(S(=O)(=O)c2ccc(Cl)cc2)cc2c(=O)n3ccccc3nc2n1Cc1ccco1 12.6%
Cc1c(OCC(=O)NCCCn2ccnc2)ccc2c3c(c(=O)oc12)CCCC3 -7.74%
CCn1c(CNC(C)=O)nnc1SCC(=O)c1ccc(Br)cc1 -12% [at 12 µM]
Cc1ccc(NC(=S)N=Nc2c(O)n(C)c3ccc(S(=O)(=O)N4CCOCC4)cc23)cc1 -31.1%
Cc1cccc(S(=O)(=O)NCCC(=O)OC(C)C(=O)NC(=O)NC2CCCCC2)c1 (stereo not given) -9.37%
O=C(Nc1cccc(Cl)c1)c1cc(S(=O)(=O)NCCc2ccc(Cl)cc2)ccc1F -101%
CC(=O)/C(=N/Nc1ccc(Br)cc1)N1CCCc2ccccc21 -58.4%
CC(=O)Nc1ccc2c(c1)N(C(=O)CN(C)C)c1ccccc1CC2 8.29%
Cc1ccc(-n2nc3c(=O)n(C(C)C(=O)NCc4ccccc4Cl)nc(C)c3c2C)cc1 (stereo not given) -40.9%
CCC(Sc1nc2n[nH]c(C)c2c(=N)n1-c1ccc(C)c(Cl)c1)C(=O)N1CCOCC1 (stereo not given) -35.5%
COc1ccc(C(=O)/C=C/C(=O)N(CC(=O)NC2CCCCC2)Cc2ccccc2)c(O)c1 -104%
O=C(Nc1cccc(Cl)c1)Nc1csc([N+](=O)[O-])c1 -42.5% [at 12 µM]
Cc1cccc(N(CC(=O)Nc2ccccc2-c2ccccc2)S(=O)(=O)c2ccccc2)c1C -30.2%
COc1cc(/C=C/C(=O)OCc2c(C)noc2C)ccc1OC(F)F -31.2%
CCC(C)(C)NC(=O)C(c1ccc(C)cc1)N(Cc1cccs1)C(=O)c1ccc2c(c1)OCCO2 (stereo not given) -63.5%
O=C(NC1CCCCC1)c1cnn2c(C(F)(F)F)cc(-c3ccco3)nc12 -16.6%
CCc1[nH]c(=O)c(C#N)c2c1CSC(C)(C)C2 3.45%
COc1ccc(S(=O)(=O)N/N=c2\oc3c(OC)cccc3cc2S(=O)(=O)c2ccc(C)cc2)cc1OC -22%
O=C(Nc1ccc([N+](=O)[O-])cc1)C1C(c2ccccc2)=C1c1ccccc1 -16.1%
COc1ccccc1NC(=O)N(Cc1ccco1)Cc1cc2ccc(C)c(C)c2[nH]c1=O -60%
O=S(=O)(c1ccc(Cl)c(NC(=S)N/N=C/c2ccc(O)cc2)c1)N1CCOCC1 -6.39%
O=C(Nc1ccccc1)C1=C(O)CC(c2ccoc2)CC1=Nc1ccccc1 (stereo not given) 4.14%
COc1cc(C(=O)NCC2CCCO2)ccc1OCc1ccc(Cl)cc1Cl (stereo not given) 3.14%
CCNC(=O)C(=O)NCc1ccncc1 -12.5%
Cn1c(SCC(=O)NNC(=O)Nc2ccc(Cl)cc2)nnc1-c1ccccc1 10.8%
O=S1(=O)NC(=NCC(c2ccco2)N2CCCCC2)c2ccccc21 (stereo not given) -6.74%
Cc1ccc(O)c(C(=O)c2cnc3c(c2)CN(CCC(C)C)C(=O)N3)c1 -37%
Cc1cccc(C(C)C)c1NC(=O)COC(=O)c1cccc(S(=O)(=O)N2CCc3ccccc3C2)c1 -3.49%
CCOC(=O)C1(CCOc2ccccc2)CCN(Cc2cc(OC)c3c(c2)OCO3)CC1 -22.8%
Oc1ccc2ccccc2c1CN1CCN(c2ccccc2)CC1 4.29%
O=C1CC(N(Cc2ccc3c(c2)OCO3)C(=O)Nc2ccc(F)cc2)C(=O)N1c1ccccc1 (stereo not given) -26.6%

3 compounds from above, arranged by molar mass, ascending.
activation, inactive:
COc1cc(C)c(S(=O)(=O)N2CCN=C2c2ccccc2)cc1C -8.16%
COc1ccccc1NC(=O)N(Cc1ccco1)Cc1cc2ccc(C)c(C)c2[nH]c1=O -60%
CCc1ccc(NC(=O)CSC2=C(C#N)C(c3ccc4c(c3)OCO4)CC(=O)N2)cc1 (stereo not given) 10.5%
